Results as given in PMC8231170, “Biphenylalkoxyamine Derivatives–Histamine H3 Receptor Ligands with Butyrylcholinesterase Inhibitory Activity” (Molecules, 2021).

Tested on: mouse model of scopolamine-induced memory impairments
Assay: step-through Passive Avoidance Task
Assay type: in vivo
Conditions: scopolamine 1 mg/kg i.p. alone, mice, 24 h after acquisition
Description: This procedure was created for studying short-term memory as well as long-term memory. The paradigm requires the rodents to behave contrary to their innate preference for dark areas and for avoiding bright ones.
The experiments were carried out on adult male Albino Swiss mice (CD-1, 18–25 g). […] Experimental groups consisted of 6–12 animals, all the animals were used only once and they were killed by cervical dislocation immediately after the assay. Behavioral measures were scored by trained observers, which were blind to experimental conditions. Treatment of laboratory animals in the present study was in full accordance with the respective Polish regulations.
Control animals (negative control) were given an appropriate amount of vehicle (1% aqueous solution of Tween 80; i.p.) 30 min before the test.
The task was performed according to the method described previously. Briefly, the test was conducted in the apparatus with two compartments (LE872, Bioseb, France). The illuminated white compartment (20 cm × 21 cm × 20 cm, 1000 lx) was separated by an automated sliding gate with the smaller dark compartment (7.3 cm × 7.5 cm × 14 cm, 10 lx) equipped with an electric grid floor. […] The latency time to cross through the gate between the compartments was measured.

CN1[C@@H]2C[C@@H](OC(=O)[C@H](CO)c3ccccc3)C[C@H]1[C@@H]1O[C@@H]12 [Scopolamine, scopolamine, reference compound]
latency time, retention trial: 35.8 ± 7.8 s
